# The list shows a part of the results.
# Biological target: T1, OsSMF1 (Oryza sativa, UniProt Q6ZLB0 1-436)
# T1 sequence: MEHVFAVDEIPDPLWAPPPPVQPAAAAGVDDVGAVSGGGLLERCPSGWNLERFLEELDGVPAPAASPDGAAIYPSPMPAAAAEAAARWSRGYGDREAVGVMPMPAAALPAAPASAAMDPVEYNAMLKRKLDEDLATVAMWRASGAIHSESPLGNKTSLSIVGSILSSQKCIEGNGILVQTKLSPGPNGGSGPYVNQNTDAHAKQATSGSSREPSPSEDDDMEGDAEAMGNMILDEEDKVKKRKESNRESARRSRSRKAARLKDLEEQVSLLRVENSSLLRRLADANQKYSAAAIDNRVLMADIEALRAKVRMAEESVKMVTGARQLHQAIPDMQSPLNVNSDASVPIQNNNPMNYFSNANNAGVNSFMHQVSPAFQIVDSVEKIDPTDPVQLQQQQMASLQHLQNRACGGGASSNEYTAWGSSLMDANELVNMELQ
# Experiment: protein-binding microarray (RPBM); PBS, 2% BSA, 51.3 ng/ul salmon testes DNA, 50 uM zinc acetate, 200 nM TF, 25 C, 1 h; high values mean tight binding
# Details: protein: recombinant; tags: N-terminal polyhistidine and DsRed monomer fusion (pET32a); chain copies: 2; label: CyDye5-dUTP incorporated in the synthesized complementary strand; 3' TTTTT single-stranded linker to array surface; dsDNA, one strand shown
# How it was run: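 The binding signal for each feature is its fluorescence intensity in arbitrary units. An Axon 4000B scanner was used to read a custom Agilent array that had been made double-stranded with Cy5-dUTP primer extension, blocked with 2% BSA, incubated at 25 °C for 1 h with 200 nM protein in PBS, 2% BSA, salmon testes DNA and 50 µM zinc acetate, and washed. The protein was an N-terminal polyhistidine–DsRed transcription factor fusion from E. coli BL21-CodonPlus, purified on Ni–NTA.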
row,Sequence,binding signal
1,CTGAATTCTTACCAGTTTTGACAGTGTTCAACTAACCAAACGGAGTCACCTAGTGCAG,3280 fluorescence intensity (a.u.)
2,TCCCTTCCTTCCGTATAGTGTAACGTACGCATCACCACCTCGGAGTCACCTAGTGCAG,4000 fluorescence intensity (a.u.)
3,TATATATATATATATTCATTAACATCAATATTAATGTGGGCGGAGTCACCTAGTGCAG,30100 fluorescence intensity (a.u.)
4,GTCGAAAACACACTCGATCGATCAGAAATTCCTGTCACCACGGAGTCACCTAGTGCAG,3950 fluorescence intensity (a.u.)
5,CTATTGCATCCAACGGTTGAGATGGAGCTCTGATATTATCCGGAGTCACCTAGTGCAG,3270 fluorescence intensity (a.u.)
6,GCCGAAGCCGACGACACATCACCGGCGGCCACTCATCGATCGGAGTCACCTAGTGCAG,3240 fluorescence intensity (a.u.)
7,AAGGATATGGCTTGTGAAAGAATACTAGCTGACATGTAGGCGGAGTCACCTAGTGCAG,3440 fluorescence intensity (a.u.)
8,AATGAATCTAGTCACACATATAAGTCTAGATTCATTAACACGGAGTCACCTAGTGCAG,3250 fluorescence intensity (a.u.)
9,GGTCACGCGAATAGGATAGTCCCAAACACATGACATGGATCGGAGTCACCTAGTGCAG,3690 fluorescence intensity (a.u.)
10,TGAGTGACTGACTAGCTTGCATTGTGTGGAGGTCGGCACGCGGAGTCACCTAGTGCAG,3140 fluorescence intensity (a.u.)
11,GATGCTGACAAGGACCAACCATTAGAGTGACCATCCCCGTCGGAGTCACCTAGTGCAG,4860 fluorescence intensity (a.u.)
12,TGGACACATGCAATTGCAAACGCAGCGCGCATGTGCAACACGGAGTCACCTAGTGCAG,3800 fluorescence intensity (a.u.)
13,AAGTCATCACGAACGTCTCACTGCTGACGGGTATATCGTCCGGAGTCACCTAGTGCAG,5360 fluorescence intensity (a.u.)
14,CCCATTTCTTGATGCGTGACGTGGCCTCCTATCTCACTGCCGGAGTCACCTAGTGCAG,28100 fluorescence intensity (a.u.)
15,GACGTTAAACCCCACGTCCCCACCAAACCACCACCACTCTCGGAGTCACCTAGTGCAG,4660 fluorescence intensity (a.u.)
16,GAGTAGGATATACGTGTGTGCGTGTTAATAGGGATGAGTGCGGAGTCACCTAGTGCAG,4270 fluorescence intensity (a.u.)
17,ATACAGTACTAGGCTACTAGCTAGTGCAGTAGTCATAGTCCGGAGTCACCTAGTGCAG,24700 fluorescence intensity (a.u.)
18,CATTTGCGTCCGTGGCACGTTGGGATATCTTGACCCGGAGCGGAGTCACCTAGTGCAG,5910 fluorescence intensity (a.u.)
19,TATGCCATATATTTCCAGGTGTGGTGAAACCATGTGTCTTCGGAGTCACCTAGTGCAG,3150 fluorescence intensity (a.u.)
20,AATAATTAGTTTTAAACATCATATCATAAGTCCACCACAACGGAGTCACCTAGTGCAG,3900 fluorescence intensity (a.u.)
21,TAATATGCGAAACAGCTAACGGTCCTAGCGCATAAGTTCGCGGAGTCACCTAGTGCAG,4760 fluorescence intensity (a.u.)
22,ATAGTTATAGTGTAGTTACGTGGTAGTTATAATATAACTACGGAGTCACCTAGTGCAG,3320 fluorescence intensity (a.u.)
23,CCTTTTCAAAATCTCCACGTCTTTTGTTTGGCGCTCCCCTCGGAGTCACCTAGTGCAG,7480 fluorescence intensity (a.u.)
24,GCCCAGCTGCGTGCATGCACTGGTGAGCACCATATCGGTCCGGAGTCACCTAGTGCAG,3320 fluorescence intensity (a.u.)
25,TAAATATGTATTCTCTACATATGTAAGATCGACGTATCAGCGGAGTCACCTAGTGCAG,3160 fluorescence intensity (a.u.)
26,CTATCTCTCCAACCAAACACTGTCGTATCATCCCACGTGTCGGAGTCACCTAGTGCAG,7720 fluorescence intensity (a.u.)
27,GACGTGTGCGTCGTGCTAGCTAGAGATTAGACACGTGGACCGGAGTCACCTAGTGCAG,10800 fluorescence intensity (a.u.)

row,Sequence,binding signal
1,ATGTGGCTGACGAGGCTCTTTTGCTTTATTCTGTGGTGTGCGGAGTCACCTAGTGCAG,5830 fluorescence intensity (a.u.)
2,TCTTAATACTACGAATATGGATATGAACCAAAATTTTGTTCGGAGTCACCTAGTGCAG,6610 fluorescence intensity (a.u.)
3,AAGATATTGCACGTGGCATCACTGTCCATTTACTCCAATGCGGAGTCACCTAGTGCAG,9980 fluorescence intensity (a.u.)
4,TCTATCTCAATGACATGTGGGTCCACATATGTCTATGACACGGAGTCACCTAGTGCAG,4110 fluorescence intensity (a.u.)
5,TCAACACTGCCACACAGGCGCCATATTAGCAAAACCGCTCCGGAGTCACCTAGTGCAG,3270 fluorescence intensity (a.u.)
6,TTGACCCTGCCTACTCCTACGTGGCAATCTGGCATCTGCACGGAGTCACCTAGTGCAG,11600 fluorescence intensity (a.u.)
7,CATGCAAGTATGAATCACATGTGTATCAGCATCATCGTCGCGGAGTCACCTAGTGCAG,4790 fluorescence intensity (a.u.)
8,TTCCATCTGAAGAACACGACCTGTGTGCTCAACTGTCAATCGGAGTCACCTAGTGCAG,6730 fluorescence intensity (a.u.)
9,TTCCTGACCTTGCTCCAAATGTCACACCGTCATCTATCCACGGAGTCACCTAGTGCAG,3670 fluorescence intensity (a.u.)
10,CAGATGGTGTGTCCAGATTCATGTACAATGATGTCACATTCGGAGTCACCTAGTGCAG,5530 fluorescence intensity (a.u.)
11,CGGCGGCATCTGTTGAGCGGTTAAGGTGGTGGCATGACTGCGGAGTCACCTAGTGCAG,3770 fluorescence intensity (a.u.)
12,GGACCTGGTCAGCGCTGCTGACGTGTGAATGGCGTGTGGCCGGAGTCACCTAGTGCAG,17100 fluorescence intensity (a.u.)
13,GCCGACGGCGACCGGCCGCGTAGTACGCGTGTCATCGTCGCGGAGTCACCTAGTGCAG,7800 fluorescence intensity (a.u.)
14,TTCACCGCTGCCACCACACCTCTCCTCTCCTCTCCTCTCCCGGAGTCACCTAGTGCAG,3240 fluorescence intensity (a.u.)
15,TTATTCAGATAATTTGATGATGATGAAAGCAGAAGCTTTGCGGAGTCACCTAGTGCAG,4140 fluorescence intensity (a.u.)
16,AATCACATAAATTTACATGTGTCACCTTCTATGCAAAAGGCGGAGTCACCTAGTGCAG,3330 fluorescence intensity (a.u.)
17,GAGCCGCTGATCCGCTGCACGGCGGCGCGGAGCGCGTCGACGGAGTCACCTAGTGCAG,39100 fluorescence intensity (a.u.)
18,CACTTGATGAGCTCCTCTCCATGTCCTCAAACGTACTGAACGGAGTCACCTAGTGCAG,25100 fluorescence intensity (a.u.)
19,TGCCGGATTATGTAAGGAAAATCTTGTCAGCACTGCTCCTCGGAGTCACCTAGTGCAG,3510 fluorescence intensity (a.u.)
20,TGACATTCTGGTCACTGTCAGAATCTCTCGGAAAATGAGGCGGAGTCACCTAGTGCAG,4080 fluorescence intensity (a.u.)
21,TTGTGCCGCACTAGTGGATATGTTTTCGGTAGGAATTTTACGGAGTCACCTAGTGCAG,3200 fluorescence intensity (a.u.)
22,ATGTTGCTCATCGTTACACGTGCTGCCTTTATATGCTATCCGGAGTCACCTAGTGCAG,5310 fluorescence intensity (a.u.)
23,TTTGCACGAAAGGCAGCCTGGGCAGCATCTAGCATGGGCGCGGAGTCACCTAGTGCAG,3560 fluorescence intensity (a.u.)
24,CAACCACAGTCGACGAACGCCAAGCACGCCGTGTCGCTCTCGGAGTCACCTAGTGCAG,22400 fluorescence intensity (a.u.)
25,AAAGCCAGTACACTCGCTGACTCGCCTGACCCTGTCAAACCGGAGTCACCTAGTGCAG,3380 fluorescence intensity (a.u.)
26,TACTTTCCTTATATATAACGTCTGTAATACGTTACGCCTTCGGAGTCACCTAGTGCAG,3250 fluorescence intensity (a.u.)
27,GCCACACCCTGTCAATGACATGTGGGCCCTCATGTGTCTACGGAGTCACCTAGTGCAG,4020 fluorescence intensity (a.u.)

# Shown as tab-separated lines: part of the list above
row	Sequence	binding signal
2	TCCCTTCCTTCCGTATAGTGTAACGTACGCATCACCACCTCGGAGTCACCTAGTGCAG	4000 fluorescence intensity (a.u.)
9	GGTCACGCGAATAGGATAGTCCCAAACACATGACATGGATCGGAGTCACCTAGTGCAG	3690 fluorescence intensity (a.u.)
12	TGGACACATGCAATTGCAAACGCAGCGCGCATGTGCAACACGGAGTCACCTAGTGCAG	3800 fluorescence intensity (a.u.)
21	TAATATGCGAAACAGCTAACGGTCCTAGCGCATAAGTTCGCGGAGTCACCTAGTGCAG	4760 fluorescence intensity (a.u.)
27	GACGTGTGCGTCGTGCTAGCTAGAGATTAGACACGTGGACCGGAGTCACCTAGTGCAG	10800 fluorescence intensity (a.u.)
2	TCTTAATACTACGAATATGGATATGAACCAAAATTTTGTTCGGAGTCACCTAGTGCAG	6610 fluorescence intensity (a.u.)
7	CATGCAAGTATGAATCACATGTGTATCAGCATCATCGTCGCGGAGTCACCTAGTGCAG	4790 fluorescence intensity (a.u.)
8	TTCCATCTGAAGAACACGACCTGTGTGCTCAACTGTCAATCGGAGTCACCTAGTGCAG	6730 fluorescence intensity (a.u.)
9	TTCCTGACCTTGCTCCAAATGTCACACCGTCATCTATCCACGGAGTCACCTAGTGCAG	3670 fluorescence intensity (a.u.)
23	TTTGCACGAAAGGCAGCCTGGGCAGCATCTAGCATGGGCGCGGAGTCACCTAGTGCAG	3560 fluorescence intensity (a.u.)
24	CAACCACAGTCGACGAACGCCAAGCACGCCGTGTCGCTCTCGGAGTCACCTAGTGCAG	22400 fluorescence intensity (a.u.)

# Reference: publication PMC7819943, “Rice protein-binding microarrays: a tool to detect cis-acting elements near promoter regions in rice”
